US20220202743A1, “PHARMACEUTICAL COMPOSITION FOR PREVENTING OR TREATING DEGENERATIVE BRAIN DISEASE USING AUTOPHAGY ACTIVATION” (VASTHERA CO. LTD., priority 2019, published 2022)
At least one compound was matched to its structure with a doubt left.

Test system: tau-BiFC cells
Assay: tau-BiFC cell assay of tau oligomerization
Type: cell-based
Conditions: okadaic acid induction, versus DMSO, FIG. 4B
Text: This effect is because rapamycin attenuates the progression of tauopathy by inducing mTOR-dependent autophagy. […]. In order to visualize and quantify intracellular tau oligomerization, a tau cell line was used in combination with bimolecular fluorescence complementation (BiFC).
Referring to FIG. 4B, the amino-terminal and carboxyl-terminal portions of the Venus protein are independently fused to htau40 and irradiated with a basal fluorescence signal under normal conditions (first lane). However, when chemical induction of tau high-phosphorylation, such as okadaic acid, which is the same as that occurs as a result of tau oligomerization occurs, a strong fluorescence signal may be generated, and thus yellow fluorescent substances are observed in the samples in which tau protein is present (second lane). […].

CO[C@H]1C[C@@H]2CC[C@@H](C)[C@@](O)(O2)C(=O)C(=O)N2CCCC[C@H]2C(=O)O[C@H]([C@H](C)C[C@@H]2CC[C@@H](O)[C@H](OC)C2)CC(=O)[C@H](C)/C=C(\C)[C@@H](O)[C@@H](OC)C(=O)[C@H](C)C[C@H](C)/C=C/C=C/C=C/1C [rapamycin]
tau aggregates: significantly fewer tau aggregates than those in the cells treated with DMSO
